PubChem BioAssay AID1224828, NIAID, 2016

- Assay: 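Regulators linking TLR4 signalling to p65 nuclear translocation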 (primary screen)
- Cell system: mouse RAW264.7 G9 macrophage reporter cells (GFP-p65, Tnf promoter-mCherry)
- Reagent: siRNA pool against mouse genes, 100 nM
- Timing: 2 days siRNA transfection, then 40 min LPS before fixation
- Conditions: LPS (Salmonella minnesota R595) at 10 ng/ml
- Read-out: 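Microscopy ratio of nuclear to perinuclear-ring GFP-p65 signal, scaled to the plate median; gene score is the average of two replicate robust z-scores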
- Reading the numbers: p65 translocation robust z-score: higher = more nuclear NF-kappaB p65 after LPS than the plate median; nuclear/cytoplasmic p65 ratio: higher = more nuclear NF-kappaB p65
- Active means: 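Called active when z exceeds 3.3 or falls under -1.56 (median of Tlr4 controls), giving activity score of at least 50; no calls for control wells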
- Calls: active = hit (p65 shift raised or lowered); inactive = no clear change
Shown is a random part of about 17,000 reagents. 762 of all reagents (4.5%) were called active. 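Active calls include both raised and lowered p65 entry, mostly lowered; wells with fewer than 50 cells lack a z-score.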 The raw values are shown without normalisation. The numbers tell different reagents against one gene apart.

Target gene | reagent no. | p65 translocation robust z-score | nuclear/cytoplasmic p65 ratio, rep 1 | nuclear/cytoplasmic p65 ratio, rep 2 | low cell count flag | Call
Slc35f1 | 1 | – | 1.28 | 0.951 | fewer than 50 cells per well; well left out of scoring | inactive
Zp1 (zona pellucida glycoprotein 1) | 1 | 0.21 | 1.41 | 1.3 | enough cells to score | inactive
Fastkd3 (FAST kinase domains 3) | 1 | – | 1.65 | 1.72 | fewer than 50 cells per well; well left out of scoring | inactive
Ttbk2 (tau tubulin kinase 2) | 1 | – | 1.53 | 1.41 | fewer than 50 cells per well; well left out of scoring | inactive
Tnrc6a (trinucleotide repeat containing 6a) | 1 | – | 1.27 | 1.2 | fewer than 50 cells per well; well left out of scoring | inactive
Pim2 (Pim2, proto-oncogene, serine/threonine kinase) | 1 | -0.2 | 1.64 | 1.37 | enough cells to score | inactive
Med1 (mediator complex subunit 1) | 1 | 0.19 | 1.48 | 1.47 | enough cells to score | inactive
Ywhae | 1 | -0.01 | 1.49 | 1.52 | enough cells to score | inactive
Hk1 (hexokinase 1) | 1 | 0.61 | 1.83 | 1.43 | enough cells to score | inactive
Cd209e (CD209e antigen) | 1 | -0.22 | 1.46 | 1.86 | enough cells to score | inactive
H2-M9 (histocompatibility 2, M region locus 9) | 1 | 0.75 | 1.73 | 1.68 | enough cells to score | inactive
Inpp5k (inositol polyphosphate 5-phosphatase K) | 1 | – | 1.55 | 1.19 | fewer than 50 cells per well; well left out of scoring | inactive
Uevld (UEV and lactate/malate dehyrogenase domains) | 1 | 0.71 | 1.6 | 1.72 | enough cells to score | inactive
Or10d4b (olfactory receptor family 10 subfamily D member 4B) | 1 | -0.28 | 1.39 | 1.23 | enough cells to score | inactive
Neurl1b (neuralized E3 ubiquitin protein ligase 1B) | 1 | -1.05 | 1.16 | 1.38 | enough cells to score | inactive
Usp38 (ubiquitin specific peptidase 38) | 1 | -0.16 | 1.63 | 1.35 | enough cells to score | inactive
Fzd7 (frizzled class receptor 7) | 1 | -0.47 | 1.45 | 1.51 | enough cells to score | inactive
Flywch2 (FLYWCH family member 2) | 1 | – | 1.08 | 1.41 | fewer than 50 cells per well; well left out of scoring | inactive
4930544G11Rik (RIKEN cDNA 4930544G11 gene) | 1 | – | 1.1 | 1.34 | fewer than 50 cells per well; well left out of scoring | inactive
As3mt (arsenite methyltransferase) | 1 | – | 1.44 | 1.12 | fewer than 50 cells per well; well left out of scoring | inactive
Crhr2 (corticotropin releasing hormone receptor 2) | 1 | – | 1.54 | 1.58 | fewer than 50 cells per well; well left out of scoring | inactive
Zfp672 (zinc finger protein 672) | 1 | – | 1.23 | 1.23 | fewer than 50 cells per well; well left out of scoring | inactive
Zfp672 (zinc finger protein 672) | 2 | – | 1.18 | 1.3 | fewer than 50 cells per well; well left out of scoring | inactive
4833408A19Rik (RIKEN cDNA 4833408A19 gene) | 1 | – | 1.57 | 1.19 | fewer than 50 cells per well; well left out of scoring | inactive

2 neighbouring reagents already listed, for reference:
Target gene | reagent no. | p65 translocation robust z-score | nuclear/cytoplasmic p65 ratio, rep 1 | nuclear/cytoplasmic p65 ratio, rep 2 | low cell count flag | Call
Zfp672 (zinc finger protein 672) | 2 | – | 1.18 | 1.3 | fewer than 50 cells per well; well left out of scoring | inactive
4833408A19Rik (RIKEN cDNA 4833408A19 gene) | 1 | – | 1.57 | 1.19 | fewer than 50 cells per well; well left out of scoring | inactive
